Some entries share one result that the patent states for a list of compounds. Some compounds share one range, which may span the group rather than tell each member.
System: WT cortical cells
Test: Lactate dehydrogenase (LDH) level in WT cortical cells after OGD/OGDR
Assay type: cell-based, mouse
Conditions: drug added 0-12 h after OGD, 10 μM (SAS 500 μM), LDH at 24 h after reperfusion
Protocol: Primary cortical cells were prepared from cerebral cortices of wild-type C57BL/6J or homozygote xCT^−/− mouse embryos in embryonic day 17 as previously described with modification (Goldberg M P, Choi D W. Combined oxygen and glucose deprivation in cortical cell culture: calcium-dependent and calcium-independent mechanisms of neuronal injury. The Journal of neuroscience: the official journal of the Society for Neuroscience, 1993; 13(8):3510-24, which is incorporated here by reference).
The LDH assay was carried out at 24 hours after reperfusion. *P<0.01 compared to drugs-untreated cells (Un), one-way ANOVA. Error bars denote the standard deviation among triplicate experiments.

SMILES	reduction of OGD-induced LDH level
CCOc1ccccc1-n1c(C(C)N2CCN(C(=O)COc3ccc(Cl)cc3)CC2)nc2ccccc2c1=O (stereo not drawn) [erastin]	30%-80%
CNC(=O)c1cc(Oc2ccc(NC(=O)Nc3ccc(Cl)c(C(F)(F)F)c3)cc2)ccn1 [sorafenib]	30%-80%
O=C(O)c1cc(/N=N/c2ccc(S(=O)(=O)Nc3ccccn3)cc2)ccc1O [sulfasalazine]	30%-80%
